Measured values reported in patent US10779537B2, “1H-pyrrolopyridine compound, N-oxide thereof or salt thereof, agricultural and horticultural insecticide comprising the compound, and method for using the insecticide” (Nihon Nohyaku Co., Ltd., priority 2016, dated 2020).
Some of these results come from one statement about several compounds together.

Experiments:
Assay type in all cases: in vivo
Myzus persicae = assay: Test for control efficacy on Myzus persicae (foliar application, potted Chinese cabbage); conditions: 500 ppm dispersion in water, foliar application to potted Chinese cabbage, 6 days after application
Laodelphax striatellus = assay: Insecticidal test on Laodelphax striatellus (rice seedling dip); conditions: 500 ppm, rice seedlings dipped 30 seconds, ten 3rd-instar larvae, 8 days after inoculation
Source text: Insecticidal Test on Laodelphax striatellus
The condensed heterocyclic compounds represented by the general formula (1) of the present invention or salts thereof were separately dispersed in water and diluted to 500 ppm. Rice plant seedlings (variety: Nihonbare) were dipped in the agrochemical dispersions for 30 seconds. After air-dried, each seedling was put into a separate glass test tube and inoculated with ten 3rd-instar larvae of Laodelphax striatellus, and then the glass test tubes were capped with cotton plugs. At 8 days after the inoculation, the numbers of surviving larvae and dead larvae were counted, the corrected mortality rate was calculated according to the formula shown below, and the insecticidal efficacy was evaluated according to the criteria shown below. Corrected mortality rate (%)=100×(Survival rate in a non-treatment plot−Survival rate in a treatment plot)/Survival rate in a non-treatment plot [Math. 2] Corrected Mortality Rate A: the corrected mortality rate is 100%. B: the corrected mortality rate is 90 to 99%. C: the corrected mortality rate is 80 to 89%. D: the corrected mortality rate is 50 to 79%.

Plutella xylostella = assay: Insecticidal test on Plutella xylostella (dip of Chinese cabbage seedlings with laid eggs); conditions: 500 ppm, seedlings with laid eggs dipped about 30 seconds, 25° C., 6 days after dip treatment, criteria of Test Example 2
Source text: Insecticidal Test on Plutella xylostella
Adults of Plutella xylostella were released onto Chinese cabbage seedlings and allowed to lay eggs thereon. At 2 days after the release of the adults, the Chinese cabbage seedlings with laid eggs were dipped for about 30 seconds in agrochemical dispersions diluted to 500 ppm, each of which contained a different condensed heterocyclic compound represented by the general formula (1) of the present invention as an active ingredient. After air-dried, the seedlings were kept in a thermostatic chamber at 25° C. At 6 days after the dip treatment, the number of hatched larvae per plot was counted, the mortality rate was calculated according to the formula shown below, and the insecticidal efficacy was evaluated according to the criteria of Test Example 2. This test was conducted in triplicate using 10 adults of Plutella xylostella per plot. Corrected mortality rate (%)=100×(Number of hatched larvae in a non-treatment plot−Number of hatched larvae in a treatment plot)/Number of hatched larvae in a non-treatment plot [Math. 3]

Structure (SMILES)	control efficacy (control rate) (Myzus persicae)	insecticidal efficacy (corrected mortality rate) (Laodelphax striatellus)	insecticidal efficacy (corrected mortality rate, hatched larvae) (Plutella xylostella)
CC[S+]([O-])c1cc(C(F)(F)F)cnc1-c1[nH]c2cc(C(F)(F)F)cnc2c1Br (racemic) [Compound 1-96]	A (the control rate is 100%)	A (the corrected mortality rate is 100%)	A (the corrected mortality rate is 100%)
CC[S+]([O-])c1cc(C(F)(F)F)cnc1-c1[nH]c2cc(C(F)(F)F)cnc2c1I (racemic) [Compound 1-97]	A (the control rate is 100%)	A (the corrected mortality rate is 100%)	A (the corrected mortality rate is 100%)
CCS(=O)(=O)c1cc(I)cnc1-c1[nH]c2cc(C(F)(F)F)cnc2c1F [Compound 1-3]	A (the control rate is 100%)	A (the corrected mortality rate is 100%)	A (the corrected mortality rate is 100%)
CCS(=O)(=O)c1cc(C2CC2)cnc1-c1[nH]c2cc(C(F)(F)F)cnc2c1F [Compound 1-4]	A (the control rate is 100%)	A (the corrected mortality rate is 100%)	A (the corrected mortality rate is 100%)
CCS(=O)(=O)c1cc(-c2ccc(F)cc2)cnc1-c1[nH]c2cc(C(F)(F)F)cnc2c1F [Compound 1-7]	A (the control rate is 100%)	A (the corrected mortality rate is 100%)	A (the corrected mortality rate is 100%)
CCS(=O)(=O)c1cc(-c2cccc(C(F)(F)F)c2)cnc1-c1[nH]c2cc(C(F)(F)F)cnc2c1F [Compound 1-8]	A (the control rate is 100%)	A (the corrected mortality rate is 100%)	A (the corrected mortality rate is 100%)
CCS(=O)(=O)c1cc(I)cnc1-c1[nH]c2cc(C(F)(F)F)cnc2c1Cl [Compound 1-40]	A (the control rate is 100%)	A (the corrected mortality rate is 100%)	A (the corrected mortality rate is 100%)
CCS(=O)(=O)c1cc(C2CC2)cnc1-c1[nH]c2cc(C(F)(F)F)cnc2c1Cl [Compound 1-41]	A (the control rate is 100%)	A (the corrected mortality rate is 100%)	A (the corrected mortality rate is 100%)
CCS(=O)(=O)c1cc(-c2ccc(F)cc2)cnc1-c1[nH]c2cc(C(F)(F)F)cnc2c1Cl [Compound 1-44]	A (the control rate is 100%)	A (the corrected mortality rate is 100%)	A (the corrected mortality rate is 100%)
CCS(=O)(=O)c1cc(-c2cccc(C(F)(F)F)c2)cnc1-c1[nH]c2cc(C(F)(F)F)cnc2c1Cl [Compound 1-45]	A (the control rate is 100%)	A (the corrected mortality rate is 100%)	A (the corrected mortality rate is 100%)
CCS(=O)(=O)c1cc(-c2ccc(C(F)(F)F)cc2)cnc1-c1[nH]c2cc(C(F)(F)F)cnc2c1Cl [Compound 1-46]	A (the control rate is 100%)	A (the corrected mortality rate is 100%)	A (the corrected mortality rate is 100%)
CCS(=O)(=O)c1cc(-c2ccc(Cl)cc2)cnc1-c1[nH]c2cc(C(F)(F)F)cnc2c1Cl [Compound 1-48]	A (the control rate is 100%)	A (the corrected mortality rate is 100%)	A (the corrected mortality rate is 100%)
CCS(=O)(=O)c1cc(-c2cccc(OC(F)(F)F)c2)cnc1-c1[nH]c2cc(C(F)(F)F)cnc2c1Cl [Compound 1-50]	A (the control rate is 100%)	A (the corrected mortality rate is 100%)	A (the corrected mortality rate is 100%)
CCS(=O)(=O)c1cc(C(F)(F)F)cnc1-c1[nH]c2cc(C(F)(F)F)cnc2c1I [Compound 1-78]	A (the control rate is 100%)	A (the corrected mortality rate is 100%)	A (the corrected mortality rate is 100%)
CCS(=O)(=O)c1cc(C(F)(F)F)cnc1-c1[nH]c2cc(C(F)(F)F)cnc2c1C [Compound 1-79]	A (the control rate is 100%)	A (the corrected mortality rate is 100%)	A (the corrected mortality rate is 100%)
CCSc1cc(C(F)(F)F)cnc1-c1[nH]c2cc(C(F)(F)F)cnc2c1C#N [Compound 1-80]	A (the control rate is 100%)	A (the corrected mortality rate is 100%)	A (the corrected mortality rate is 100%)
CCSc1cc(C(F)(F)F)cnc1-c1[nH]c2cc(C(F)(F)F)cnc2c1C(=O)OC [Compound 1-81]	A (the control rate is 100%)	A (the corrected mortality rate is 100%)	A (the corrected mortality rate is 100%)
CCOC(=O)c1c(-c2ncc(C(F)(F)F)cc2SCC)[nH]c2cc(C(F)(F)F)cnc12 [Compound 1-82]	A (the control rate is 100%)	A (the corrected mortality rate is 100%)	A (the corrected mortality rate is 100%)
CCSc1cc(Cl)cnc1-c1[nH]c2cc(C(F)(F)F)cnc2c1Cl [Compound 1-95]	A (the control rate is 100%)	A (the corrected mortality rate is 100%)	A (the corrected mortality rate is 100%)
C=Cc1c(-c2ncc(C(F)(F)F)cc2S(=O)(=O)CC)[nH]c2cc(C(F)(F)F)cnc12 [Compound 1-98]	A (the control rate is 100%)	A (the corrected mortality rate is 100%)	A (the corrected mortality rate is 100%)
CCS(=O)(=O)c1cc(OCC(F)(F)F)cnc1-c1[nH]c2cc(C(F)(F)F)cnc2c1Cl [Compound 1-99]	A (the control rate is 100%)	A (the corrected mortality rate is 100%)	A (the corrected mortality rate is 100%)
CCS(=O)(=O)c1cc(OCc2ccc(C(F)(F)F)cc2)cnc1-c1[nH]c2cc(C(F)(F)F)cnc2c1Cl [Compound 1-100]	A (the control rate is 100%)	A (the corrected mortality rate is 100%)	A (the corrected mortality rate is 100%)
CCS(=O)(=O)c1cc(-n2ccc(C(F)(F)F)n2)cnc1-c1[nH]c2cc(C(F)(F)F)cnc2c1Cl [Compound 1-101]	A (the control rate is 100%)	A (the corrected mortality rate is 100%)	A (the corrected mortality rate is 100%)
CCS(=O)(=O)c1cc(-c2ccc(F)cc2)cnc1-c1[nH]c2cc(C(F)(F)F)cnc2c1C [Compound 1-102]	A (the control rate is 100%)	A (the corrected mortality rate is 100%)	A (the corrected mortality rate is 100%)
CCS(=O)(=O)c1cc(-c2ccccc2C(F)(F)F)cnc1-c1[nH]c2cc(C(F)(F)F)cnc2c1Cl [Compound 1-103]	A (the control rate is 100%)	A (the corrected mortality rate is 100%)	A (the corrected mortality rate is 100%)
CCS(=O)(=O)c1cc(-c2cc(F)cc(F)c2)cnc1-c1[nH]c2cc(C(F)(F)F)cnc2c1Cl [Compound 1-104]	A (the control rate is 100%)	A (the corrected mortality rate is 100%)	A (the corrected mortality rate is 100%)
